# Measurements as given in the supplement of paper PMC7024190.
# Structures can show the parent of a compound that is named as a salt. The list shows a part of the results. This data set is noisy: repeats of one test often differ as much as different tests do.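 A first-round screen of about ten thousand compounds sought those raising reporter output, using human embryonic kidney cells briefly transfected with a plasmid carrying a Renilla luciferase gene driven by the HSV-TK promoter.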
# Tested on: HEK 293FT
# Experiment: log relative Renilla luciferase luminescence (reporter expression vs reference, reference not stated) (log (base not stated)); higher = higher recombinant reporter expression
# Conditions: 10 µM; time after transfection 48 h
row,SMILES,log
1,O=c1c(-c2ccc(O)cc2)coc2cc(O)ccc12 [daidzein],0.097
2,CN1C(=O)OC(C)(C)C1=O [trimethadione],0.0481
3,CC(=O)CCCCn1c(=O)c2c(ncn2C)n(C)c1=O [pentoxifylline],0.128
4,CN(C/C=C/c1ccccc1)Cc1cccc2ccccc12 [naftifine hydrochloride],-0.165
5,NCCNCCNCCN [trientine hydrochloride],0.116
6,O=C(CCc1ccc(O)cc1)c1c(O)cc(O)cc1O[C@@H]1OC(CO)[C@@H](O)[C@@H](O)C1O (stereo partly drawn) [phloridzin],0.0818
7,COc1c(C)c2c(c(O)c1C/C=C(\C)CCC(=O)O)C(=O)OC2 [mycophenolic acid],-1.58
8,O=C(O)c1ccc(S(=O)(=O)N(Cl)Cl)cc1 [halazone],0.0398
9,O=C(Oc1ccccc1C(=O)O)c1ccccc1O [salsalate],-0.0552
10,CCCCCNC(=N)N/N=C/c1c[nH]c2ccc(OC)cc12 [tegaserod maleate],-0.273
11,CCN1CCCC(OC(=O)C(c2ccccc2)c2ccccc2)C1 (stereo not drawn) [piperidolate hydrochloride],0.0338
12,Nc1ccc(C(=O)O)cc1 [potassium p-aminobenzoate],0.0108
13,CCCCCC(=O)O[C@]1(C(C)=O)CC[C@H]2[C@@H]3CCC4=CC(=O)CC[C@]4(C)[C@H]3CC[C@@]21C [hydroxyprogesterone caproate],-0.176
14,O=C(O[C@@H]1Cc2c(O)cc(O)cc2O[C@@H]1c1ccc(O)c(O)c1)c1cc(O)c(O)c(O)c1 [epicatechin monogallate],0.0626
15,OC(c1cc(C(F)(F)F)nc2c(C(F)(F)F)cccc12)C1CCCCN1 (stereo not drawn) [mefloquine],-0.0681
16,CNCCCC12CCC(c3ccccc31)c1ccccc12 [maprotiline hydrochloride],0.0992
17,CC[C@H]1OC(=O)C[C@@H](O)[C@H](C)[C@@H](O[C@@H]2O[C@H](C)[C@@H](O)[C@H](N(C)C)[C@H]2O)[C@@H](CCN2C[C@H](C)C[C@H](C)C2)C[C@@H](C)C(=O)/C=C/C(C)=C/[C@@H]1CO[C@@H]1O[C@H](C)[C@@H](O)[C@@H](OC)[C@H]1OC [tilmicosin],-0.105
18,Cc1coc2c1C(=O)C(=O)c1c-2ccc2c1CCCC2(C)C [tanshinone iia],-0.00986
19,C[C@]12C=CC(=O)C=C1CC[C@H]1[C@@H]3C[C@@H](O)[C@](O)(C(=O)CO)[C@@]3(C)C[C@H](O)[C@@]12F [triamcinolone],-0.337
20,CCN(CC)C(=O)/C(C#N)=C/c1cc(O)c(O)c([N+](=O)[O-])c1 [entacapone],0.0992
21,C[C@@H]1O[C@@H](OC[C@H]2O[C@@H](Oc3c(-c4ccc(OCCO)c(OCCO)c4)oc4cc(OCCO)cc(O)c4c3=O)[C@H](O)[C@@H](O)[C@@H]2O)[C@H](O)[C@H](O)[C@H]1O [troxerutin],0.0569
22,C[C@@H](O)[C@H]1C(=O)N2C(C(=O)O)=C(S[C@@H]3CN[C@H](C(=O)N(C)C)C3)[C@H](C)[C@H]12 [meropenem],0.02

# Rewritten bar-delimited: entries from further up
row | SMILES | log
12 | Nc1ccc(C(=O)O)cc1 [potassium p-aminobenzoate] | 0.0108
13 | CCCCCC(=O)O[C@]1(C(C)=O)CC[C@H]2[C@@H]3CCC4=CC(=O)CC[C@]4(C)[C@H]3CC[C@@]21C [hydroxyprogesterone caproate] | -0.176

# The list goes on.

row,SMILES,log
1,"COc1ccc(C(=O)O)c(O)c1OC [2-hydroxy-3,4-dimethoxybenzoic acid]",-0.0363
2,Cc1cc(C)cc(OCC2CNC(=O)O2)c1 (stereo not drawn) [metaxalone],0.16
3,CC(=O)O[C@H]1C[C@@H]2CC[C@@H]3[C@H](CC[C@@]4(C)[C@H]3C[C@H]([N+]3(C)CCCCC3)[C@@H]4OC(C)=O)[C@@]2(C)C[C@@H]1N1CCCCC1 [vecuronium bromide],-0.0526
4,"CCOC(=O)c1c(C)cc(O)c(C=O)c1O [haematommic acid, ethyl ester]",-0.158
5,CCN(CC)CCOC(=O)c1ccc(N)cc1 [procaine hydrochloride],-0.0145
6,CC[C@H](C)C(=O)O[C@H]1C[C@@H](C)C=C2C=C[C@H](C)[C@H](CC[C@@H]3C[C@@H](O)CC(=O)O3)[C@H]21 [lovastatin],0.104
7,Cc1c(C)c2c(c(C)c1O)CCC(C)(C(=O)O)O2 (stereo not drawn) [trolox],-0.064
8,COc1ccc(-c2coc3c4c(c(CC=C(C)C)c(O)c3c2=O)OC(C)(C)C=C4)cc1 [osajin 4'-methyl ether],-0.00923
9,Oc1cccc2[nH]ccc12 [4-hydroxyindole],-0.00923
10,CC(C)C[C@H](N)C(=O)N[C@@H](C)C(=O)O [l-leucyl-l-alanine],0.0623
11,CC(=O)N[C@@H](CS)C(=O)O [acetylcysteine],0.0139
12,CC(=O)O[C@H]1C[C@@]2(C)[C@@H](C[C@@H](O)[C@H]3[C@@]4(C)CC[C@@H](O)[C@@H](C)[C@@H]4CC[C@@]32C)/C1=C(\CCC=C(C)C)C(=O)O [fusidic acid],0.224
13,"COc1cccc(-c2cc(=O)c3cc(OC)ccc3o2)c1 [6,3'-dimethoxyflavone]",0.191
14,COc1cc(C2Oc3cc([C@H]4Oc5cc(O)cc(O)c5C(=O)[C@@H]4O)ccc3OC2CO)ccc1O (stereo partly drawn) [silibinin],-0.116
15,O=c1cc(-c2ccccc2)oc2cc(O)c(O)c(O)c12 [baicalein],0.0136
16,CC(C)CCCC(C)N (stereo not drawn) [octodrine],-0.0665
17,NCCCC(O)(P(=O)(O)O)P(=O)(O)O [alendronate sodium],0.0299
18,CNC[C@H](O)[C@@H](O)[C@H](O)[C@H](O)CO [meglumine],-0.136
19,Nc1ccc(S(=O)(=O)Nc2cnc3ccccc3n2)cc1 [sulfaquinoxaline sodium],0.104
20,COc1ccc(C[C@H](N)C(=O)N[C@H]2[C@@H](O)[C@H](n3cnc4c(N(C)C)ncnc43)O[C@@H]2CO)cc1 [puromycin dihydrochloride],-0.333
21,CCCCC/C=C/CCC(=O)N[C@H]1[C@H](Oc2c3cc4cc2Oc2ccc(cc2Cl)[C@@H](O[C@@H]2O[C@H](CO)[C@@H](O)[C@H](O)[C@H]2NC(C)=O)[C@@H]2NC(=O)[C@H](NC(=O)[C@@H]4NC(=O)[C@H]4NC(=O)C(Cc5ccc(c(Cl)c5)O3)NC(=O)[C@H](N)c3ccc(O)c(c3)Oc3cc(O)cc4c3)c3ccc(O)c(c3)-c3c(OC4O[C@H](CO)[C@@H](O)[C@H](O)[C@@H]4O)cc(O)cc3[C@@H](C(=O)O)NC2=O)O[C@H](CO)[C@@H](O)[C@@H]1O (stereo partly drawn) [teicoplanin [a(2-1) shown]],-0.0896
